Assay results reported in article PMC10203668.
No constants are given. Whether binding was seen depends on the method and setting. In cells and extracts the contact can be indirect. Some binding calls cover weakened binding; strength is not graded here.

Target: T1, Heat-Shock Factor 1 (HSF1), Q00613
T1 chain: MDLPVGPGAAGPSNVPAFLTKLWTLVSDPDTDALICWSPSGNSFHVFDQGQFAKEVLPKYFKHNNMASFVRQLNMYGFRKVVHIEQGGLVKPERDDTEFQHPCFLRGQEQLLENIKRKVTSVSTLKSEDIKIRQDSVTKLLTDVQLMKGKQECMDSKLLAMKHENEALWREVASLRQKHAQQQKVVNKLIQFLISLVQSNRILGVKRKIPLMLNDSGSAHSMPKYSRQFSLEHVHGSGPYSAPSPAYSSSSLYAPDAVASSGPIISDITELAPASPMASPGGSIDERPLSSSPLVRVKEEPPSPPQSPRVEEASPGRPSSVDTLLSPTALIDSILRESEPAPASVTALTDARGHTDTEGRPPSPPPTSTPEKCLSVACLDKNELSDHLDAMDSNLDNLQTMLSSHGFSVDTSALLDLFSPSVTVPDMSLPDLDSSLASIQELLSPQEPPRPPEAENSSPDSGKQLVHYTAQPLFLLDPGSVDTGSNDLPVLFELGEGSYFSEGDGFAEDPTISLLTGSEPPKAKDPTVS
Assay: FRET or BRET; intermolecular BRET in live cells co-expressing nLuc-HSF1 (donor) and mNeonG-HSF1 (acceptor) with HSP90 vector; 37 °C; 5 µM Coelenterazine H; MG132 for 18 h; sham or 5G-modulated 3.5 GHz RF-EMF exposure for 24 h
Details: remark: other sources report otherwise

B1: Heat-Shock Factor 1 (HSF1), Q00613 1-529 (protein)
chain: MDLPVGPGAAGPSNVPAFLTKLWTLVSDPDTDALICWSPSGNSFHVFDQGQFAKEVLPKYFKHNNMASFVRQLNMYGFRKVVHIEQGGLVKPERDDTEFQHPCFLRGQEQLLENIKRKVTSVSTLKSEDIKIRQDSVTKLLTDVQLMKGKQECMDSKLLAMKHENEALWREVASLRQKHAQQQKVVNKLIQFLISLVQSNRILGVKRKIPLMLNDSGSAHSMPKYSRQFSLEHVHGSGPYSAPSPAYSSSSLYAPDAVASSGPIISDITELAPASPMASPGGSIDERPLSSSPLVRVKEEPPSPPQSPRVEEASPGRPSSVDTLLSPTALIDSILRESEPAPASVTALTDARGHTDTEGRPPSPPPTSTPEKCLSVACLDKNELSDHLDAMDSNLDNLQTMLSSHGFSVDTSALLDLFSPSVTVPDMSLPDLDSSLASIQELLSPQEPPRPPEAENSSPDSGKQLVHYTAQPLFLLDPGSVDTGSNDLPVLFELGEGSYFSEGDGFAEDPTISLLTGSEPPKAKDPTVS
With B1 the binding was “binds”.
